Variants at the background level are over-represented here.

Data set [1] relates to biotinyl-Leu-oxazolone. The experiment in a line: self-aminoacylation, catalytic enhancement (BLO) (fold over background); higher = more active; k-Seq, kA / k0A0; sequences stand for … in GGGAAUGGAUCCACAUCUACGAAUUC…UUCACUGCAGACUUGACGAAGCUG
Put shortly:
(§1)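 Working in 50 μL HEPES/NaCl/KCl/MgCl2/CaCl2 buffer with 5% acetonitrile at pH 6.9–7.0, mutagenized RNA pools (0.43 μM; 21-nt variable region) were reacted with 2–1250 μM of each biotinyl-aminoacyl-oxazolone for 90 minutes at room temperature. Streptavidin capture followed, with quantification by triplicate qPCR and Illumina sequencing. Catalytic enhancement is reported as median kA over the uncatalyzed rate, the low-activity peak of a bimodal Gaussian fit to the data.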

In data set [2] the test system is biotinyl-Val-oxazolone. In words: self-aminoacylation, catalytic enhancement (BVO) (fold over background); higher = more active; k-Seq, kA / k0A0; sequences stand for … in GGGAAUGGAUCCACAUCUACGAAUUC…UUCACUGCAGACUUGACGAAGCUG
Put shortly:
as §1

Data set [3] has as its system biotinyl-Ile-oxazolone. The experiment in a line: self-aminoacylation, catalytic enhancement (BIO) (fold over background); higher = more active; k-Seq, kA / k0A0; sequences stand for … in GGGAAUGGAUCCACAUCUACGAAUUC…UUCACUGCAGACUUGACGAAGCUG
Put shortly:
as §1

Data set [4] concerns biotinyl-Met-oxazolone. The experiment in a line: self-aminoacylation, catalytic enhancement (BMO) (fold over background); higher = more active; k-Seq, kA / k0A0; sequences stand for … in GGGAAUGGAUCCACAUCUACGAAUUC…UUCACUGCAGACUUGACGAAGCUG
The procedure, abridged:
as §1

As to “CUACUUCAAUAAAUCGGUCUG [Fam1A.1 aminoacylation ribozyme variant]”, the self-aminoacylation in data set [1] was found to be 0.939; in data set [2] it was 0.77; in data set [3], 0.814; in data set [4], 0.767.
Turning to “CCACUCUUCAAGGAAUCGGUC [Fam1B.1 aminoacylation ribozyme variant]”, the self-aminoacylation came out at 1.13 in data set [1], 0.968 in data set [2], 1.12 in data set [3] and 1.05 in data set [4].
For the sequence “CCACCCUUCAAGCAAUCGGCC [Fam1B.1 aminoacylation ribozyme variant]”, the self-aminoacylation amounted to 1.66 in data set [1], 1.58 in data set [3] and 1.56 in data set [4].
Consider “CCCAACUUCAAGCAAUCGGUC [Fam1B.1 aminoacylation ribozyme variant]”, for which the self-aminoacylation in data set [1] worked out at 2.34; in data set [2], 1.74; in data set [3], 1.56; in data set [4], 1.49.
Consider “CCAAACUUCAAGCAAUCGGCC [Fam1B.1 aminoacylation ribozyme variant]”, for which the self-aminoacylation came to 3.45 in data set [1], 3.04 in data set [2], 2.38 in data set [3] and 2.21 in data set [4].
The like results for “CAGUUUGCUAAUAGCCGCAAG [Fam3.1 aminoacylation ribozyme variant]” were, in that order, 1.69, 1.46, 1.86 and 1.26.
On to “AUUACCCUGGUCAACGGGUGA [Fam2.1 aminoacylation ribozyme variant]”, for which the self-aminoacylation in data set [1] was determined as 9.68; in data set [2], 4.61; in data set [3], 4.83; in data set [4], 9.43.
“AGGUUUGCUAAUAGUCACAAG [Fam3.1 aminoacylation ribozyme variant]”: the self-aminoacylation worked out at 0.985 in data set [1], 1.12 in data set [2], 1.15 in data set [3] and 1.12 in data set [4].
“UUAGUUCAAACAAUCGGUCUG [Fam1A.1 aminoacylation ribozyme variant]”: the self-aminoacylation in data set [1] is 1.12; in data set [2], 1.03; in data set [3] it was 1.21; in data set [4], 1.04.
“CCACUUCAAACAAUCGCUCUG [Fam1A.1 aminoacylation ribozyme variant]”: the self-aminoacylation in data set [1] stood at 1; in data set [2], 0.978; in data set [3] it was 0.977; in data set [4], 0.836.
With “AAGUGUGCUAAUAGUCGAAAG [Fam3.1 aminoacylation ribozyme variant]”, the self-aminoacylation in data set [1] came out at 1.48; in data set [2], 1.14; in data set [3], 1.31; in data set [4], 1.75.
In the case of “CCACACUUCAAUCGAUCGGUC [Fam1B.1 aminoacylation ribozyme variant]”, the self-aminoacylation in data set [1] was determined as 0.842; in data set [2], 1.14; in data set [3] it was 1.07; in data set [4], 0.825.
Taken in the same sequence, the figures for “UCACAGUUCAAGCAAUCGGUC [Fam1B.1 aminoacylation ribozyme variant]” were 1.16, 0.999, 1.05 and 1.01.
“AUUACCAUGGUCAUCGAGAGA [Fam2.1 aminoacylation ribozyme variant]”: the self-aminoacylation in data set [1] was found to be 0.937; in data set [2] it was 0.864; in data set [3] it was 0.797; in data set [4] it was 0.859.
Regarding “AAGUUCGCUAAUAGUCGCAAC [Fam3.1 aminoacylation ribozyme variant]”, the self-aminoacylation is 1.54 in data set [1], 1.53 in data set [2] and 1.91 in data set [3].
As to “CUAUUUCAAUCAAUCGGUCUG [Fam1A.1 aminoacylation ribozyme variant]”, the self-aminoacylation turned out to be 0.903 in data set [1], 0.895 in data set [2], 0.83 in data set [3] and 0.897 in data set [4].
For the sequence “CCACACUUCAAGUAAUGGGUC [Fam1B.1 aminoacylation ribozyme variant]”, the self-aminoacylation in data set [1] was determined as 0.803; in data set [2], 0.66; in data set [3], 0.868; in data set [4], 1.04.
As for “CUACUUCAAACAAUCGGUCUC [Fam1A.1 aminoacylation ribozyme variant]”, the self-aminoacylation in data set [1] was 1.42; in data set [2], 1.04; in data set [3], 0.938; in data set [4], 1.01.
The like results for “CUGCACUUCAAGCAAUCGGUC [Fam1B.1 aminoacylation ribozyme variant]” were, in that order, 1.94, 1.31, 1.29 and 1.65.
Regarding “CCGCACUCCAAGCAAUCGGUC [Fam1B.1 aminoacylation ribozyme variant]”, the self-aminoacylation turned out to be 0.931 in data set [1], 1.7 in data set [2], 1.14 in data set [3] and 0.991 in data set [4].
Regarding “CAACACUUUAAGCAAUCGGUC [Fam1B.1 aminoacylation ribozyme variant]”, the self-aminoacylation in data set [1] was 0.854; in data set [2] it was 0.846; in data set [3], 0.96; in data set [4], 0.762.
Take “AAGUUGGCUAAUAGUCGCAAA [Fam3.1 aminoacylation ribozyme variant]”: the self-aminoacylation in data set [1] turned out to be 1.75; in data set [2], 1.25; in data set [3], 1.99; in data set [4], 1.45.
As to “GAGUUUUCUAAUAGUCGCAAG [Fam3.1 aminoacylation ribozyme variant]”, the self-aminoacylation in data set [1] stood at 1.38; in data set [2], 1.36; in data set [3] it was 1.72; in data set [4], 1.17.
The like results for “UUAUUUCAAACAAUCGGUCUG [Fam1A.1 aminoacylation ribozyme variant]” were, in that order, 0.924, 0.944, 0.963 and 0.909.
As to “CCACACUUCAAGAAAUCGGUC [Fam1B.1 aminoacylation ribozyme variant]”, the self-aminoacylation in data set [1] worked out at 0.898; in data set [2], 0.825; in data set [3], 0.799; in data set [4], 0.744.
The like results for “AAUCACCUAGGACAUCGGGUG [Fam2.2 aminoacylation ribozyme variant]” were, in that order, 3.27, 3.32, 3.91 and 4.09.
The like results for “CCAAACUUCAAGGAAUCGGUC [Fam1B.1 aminoacylation ribozyme variant]” were, in that order, 1.18, 1.33, 1.23 and 1.42.
Take “CCGCACUUCAAGCAUUCGGUC [Fam1B.1 aminoacylation ribozyme variant]”: the self-aminoacylation was 1.62 in data set [1], 2.28 in data set [2], 2.17 in data set [3] and 1.85 in data set [4].
Regarding “CUACUUCAUAGAAUCGGUCUG [Fam1A.1 aminoacylation ribozyme variant]”, the self-aminoacylation is 0.749 in data set [2], 0.783 in data set [3] and 0.75 in data set [4].
For “GUUCAUCUAGGUCAUCGGGUG [Fam2.2 aminoacylation ribozyme variant]”, the self-aminoacylation in data set [2] came to 3.72; in data set [3], 4.19; in data set [4], 5.79.
With “CUACUCCAAACAAUCCGUCUG [Fam1A.1 aminoacylation ribozyme variant]”, the self-aminoacylation came to 0.821 in data set [2], 0.838 in data set [3] and 0.636 in data set [4].

For the origin of these results see the supplement of paper PMC9233669.
